Source: publication PMC7819943, “Rice protein-binding microarrays: a tool to detect cis-acting elements near promoter regions in rice”
The other results are listed elsewhere or left out.

Chains of the proteins cited; added tags and fusions are not shown.
UniProt Q0JBA9, entry or part of it: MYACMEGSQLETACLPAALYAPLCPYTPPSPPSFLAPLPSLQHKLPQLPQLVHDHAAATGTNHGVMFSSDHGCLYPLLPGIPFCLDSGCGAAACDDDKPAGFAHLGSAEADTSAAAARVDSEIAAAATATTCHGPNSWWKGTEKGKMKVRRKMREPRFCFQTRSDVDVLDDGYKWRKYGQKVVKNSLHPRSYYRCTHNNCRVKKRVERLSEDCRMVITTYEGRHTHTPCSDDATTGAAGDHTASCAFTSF

Target: OsWRKY34 (Oryza sativa, UniProt Q0JBA9 1-250)
Experiment: protein-binding microarray (RPBM); PBS, 2% BSA, 51.3 ng/ul salmon testes DNA, 50 uM zinc acetate, 200 nM TF, 25 C, 1 h; high values mean tight binding
Settings: protein: recombinant; tags: N-terminal polyhistidine and DsRed monomer fusion (pET32a); label: CyDye5-dUTP incorporated in the synthesized complementary strand; 3' TTTTT single-stranded linker to array surface; dsDNA, one strand shown
Summary of the method: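 The binding signal for each feature is its fluorescence intensity in arbitrary units. An Axon 4000B scanner was used to read a custom Agilent array that had been made double-stranded with Cy5-dUTP primer extension, blocked with 2% BSA, incubated at 25 °C for 1 h with 200 nM protein in PBS, 2% BSA, salmon testes DNA and 50 µM zinc acetate, and washed. The protein was an N-terminal polyhistidine–DsRed transcription factor fusion from E. coli BL21-CodonPlus, purified on Ni–NTA.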

| Sequence | binding signal |
| --- | --- |
| TTGCACTATATATTTTCCCATTGACATTCGTTGTAGCCGTCGGAGTCACCTAGTGCAG | 9030 fluorescence intensity (a.u.) |
| TAATCCCTATATATGCTTCCTTCCATTCACGTTCGATTCTCGGAGTCACCTAGTGCAG | 8960 fluorescence intensity (a.u.) |
| CGCCGCTGCAAACCTCCGTCTCCTCCGGCTCCGGCTGCTCCGGAGTCACCTAGTGCAG | 8880 fluorescence intensity (a.u.) |
| GATCCATACGTTTTCTAAGTTAGTAAATGTGCAATTTTTTCGGAGTCACCTAGTGCAG | 8290 fluorescence intensity (a.u.) |
| GTTGGTTTTGGGGTTTTGGAGCGTTGCGGATTGCCACGGCCGGAGTCACCTAGTGCAG | 10300 fluorescence intensity (a.u.) |
| TCCCAACCCACCGTTCCATTCTCTCGAGCTCACCCCGTCACGGAGTCACCTAGTGCAG | 10500 fluorescence intensity (a.u.) |
| AAAATTTTCTTGTGTTTTGCAATACTCTGTTTTACACATACGGAGTCACCTAGTGCAG | 9280 fluorescence intensity (a.u.) |
| TTGTTTTAACCTGGCCGTGCCTGTGTGAGTCCTGGTTATTCGGAGTCACCTAGTGCAG | 9160 fluorescence intensity (a.u.) |
| GTTCGGTTGTACCTTATTTTTTTCTTGGCTCTTGTTGTCCCGGAGTCACCTAGTGCAG | 12400 fluorescence intensity (a.u.) |
| TCTCATGCTTGTTCTGGGGATCTGCTGGTGGGTTTGGAGTCGGAGTCACCTAGTGCAG | 10700 fluorescence intensity (a.u.) |
| GCGCGGATCCATCTCCTAGCTAGCGCACCATCTATGGATCCGGAGTCACCTAGTGCAG | 8450 fluorescence intensity (a.u.) |
| CAATTGCGTCTCCTTCGTATAGTAGTTTAGTCGGGTTAGTCGGAGTCACCTAGTGCAG | 9730 fluorescence intensity (a.u.) |
| CCTTAATTCCGCACCTCGACCTTATCCTTTCCCACTTTCCCGGAGTCACCTAGTGCAG | 11100 fluorescence intensity (a.u.) |
| GCCCCATTGCCTGGCGCTGTTTTTGCCACCGACCTGCTTTCGGAGTCACCTAGTGCAG | 8700 fluorescence intensity (a.u.) |
| GGGGTGGACTGGGGTGTTTGGCTGCGTGAGTGCGGAGCGGCGGAGTCACCTAGTGCAG | 8920 fluorescence intensity (a.u.) |
| AAATGTGAATGATGTTTATTTTGTCTAGTTTTACTGTTAACGGAGTCACCTAGTGCAG | 8510 fluorescence intensity (a.u.) |
| AAACATCTCACACCACAACTCCACCACCACTCCTTCCAAGCGGAGTCACCTAGTGCAG | 8740 fluorescence intensity (a.u.) |
| CCGTTGACCACAAACGAACACAAGATCCATGCATCCGGGCCGGAGTCACCTAGTGCAG | 8050 fluorescence intensity (a.u.) |
| TATCCTTCTCGTCTTCTCGTTAATTTTTCCGGCAGCAACGCGGAGTCACCTAGTGCAG | 9730 fluorescence intensity (a.u.) |
| GACCGCAGTTTCGCTGCTTTCGTCGTCTTCCTCACCGTTCCGGAGTCACCTAGTGCAG | 12000 fluorescence intensity (a.u.) |
| CATTGGACTGCATATTAATTTGAGTATTCTGTTTCTCATTCGGAGTCACCTAGTGCAG | 9190 fluorescence intensity (a.u.) |

A second format for part of the listing above.
Sequence | binding signal
GCCCCATTGCCTGGCGCTGTTTTTGCCACCGACCTGCTTTCGGAGTCACCTAGTGCAG | 8700 fluorescence intensity (a.u.)
GGGGTGGACTGGGGTGTTTGGCTGCGTGAGTGCGGAGCGGCGGAGTCACCTAGTGCAG | 8920 fluorescence intensity (a.u.)

Pulled one by one from above, 2 records:

| Sequence | binding signal |
| --- | --- |
| GCGCGGATCCATCTCCTAGCTAGCGCACCATCTATGGATCCGGAGTCACCTAGTGCAG | 8450 fluorescence intensity (a.u.) |
| CCTTAATTCCGCACCTCGACCTTATCCTTTCCCACTTTCCCGGAGTCACCTAGTGCAG | 11100 fluorescence intensity (a.u.) |

Additional records.

| Sequence | binding signal |
| --- | --- |
| CTCCTCTGTCCCAGCTCAAGCTTTCGTCTTCGTCTTCGCCCGGAGTCACCTAGTGCAG | 9050 fluorescence intensity (a.u.) |
| CCTTTGCTCTATCTCGTTTTTCTGCATCTGCAGCATCTCACGGAGTCACCTAGTGCAG | 15400 fluorescence intensity (a.u.) |
| CATTACCGACTGACTACTAAATTTCGAGTCCTATTGATATCGGAGTCACCTAGTGCAG | 9460 fluorescence intensity (a.u.) |
| TGTTCACCTCTCCGGCGACGAGATGGTCCCAACCTGCAGCCGGAGTCACCTAGTGCAG | 8190 fluorescence intensity (a.u.) |
| CCCACCACCGCAACACCATCACCAACCAGCCTTTTTTTCTCGGAGTCACCTAGTGCAG | 10200 fluorescence intensity (a.u.) |
| CATAAAAAATCTAACGTCCGCTTTTTTTTTATTTTTTCCTCGGAGTCACCTAGTGCAG | 8540 fluorescence intensity (a.u.) |
| GGGACATGTTATATATGGTTTTCCGGTTGAAGGACGAAAACGGAGTCACCTAGTGCAG | 8160 fluorescence intensity (a.u.) |
| TGCACACTGGCCAGCCATACTTGTGCAGTTGTGCCCACAACGGAGTCACCTAGTGCAG | 9220 fluorescence intensity (a.u.) |
| CTCCGTTTGTAAATATTTGACGCCGTTGACTTTTTAAAATCGGAGTCACCTAGTGCAG | 22700 fluorescence intensity (a.u.) |
| TCTTGTTTCTGCAGTTGTCCAACTGGTCTTCTCATGGCCGCGGAGTCACCTAGTGCAG | 8360 fluorescence intensity (a.u.) |
| TCAGCAGACACACACCCAGCTTCATCAATCCACCCACCTCCGGAGTCACCTAGTGCAG | 9180 fluorescence intensity (a.u.) |
| ACAAGTTGCTATATTTTTTTTTCGTGTGGGGATGTGAGGACGGAGTCACCTAGTGCAG | 10100 fluorescence intensity (a.u.) |
| GAGGGAGAGAATAAAGAGAAGTGGGGTCTTGAGGAGGAAGCGGAGTCACCTAGTGCAG | 8560 fluorescence intensity (a.u.) |
| GCCCACGTCCTTTTGACCTGCTGCGCGTAGAAGTGACGCACGGAGTCACCTAGTGCAG | 10100 fluorescence intensity (a.u.) |
| GCCCACCGGCCCATTTATTTTTCCTACGATTTTCTAATTTCGGAGTCACCTAGTGCAG | 8170 fluorescence intensity (a.u.) |
| GACGAGCACACGCTTCCTCTCCATCTCTGCTTCTGCTCTCCGGAGTCACCTAGTGCAG | 11300 fluorescence intensity (a.u.) |
| CCTCTCCAATGATTCTTTGCTCTTTTTTTTTCTCTCATTCCGGAGTCACCTAGTGCAG | 10300 fluorescence intensity (a.u.) |
| CGTGCACTCACTTGTCGTCAGTTTACACATACGTTCAGCACGGAGTCACCTAGTGCAG | 9260 fluorescence intensity (a.u.) |
| TAAATCACTCACGGAAGTTTGTCGCTATTCTTCTAGTCAACGGAGTCACCTAGTGCAG | 9330 fluorescence intensity (a.u.) |
| GCCCAGCCCAGCCCGCTCTTCGTTTCCTCTCTAGTGACTTCGGAGTCACCTAGTGCAG | 9510 fluorescence intensity (a.u.) |
| TCCATCCACCTCCACCTCCTCGCGGTTTCCATCCCGCGAACGGAGTCACCTAGTGCAG | 8740 fluorescence intensity (a.u.) |
